Results are given in words; binding and its absence hold for the method and conditions named. In cells and extracts the contact can be indirect. Some results given as binding are weak or reduced against the parent protein; the word gives no strength. Where a sequence is shown, tags or fusion partners need not be part of it.

T1: CESA6, full length, split-YFP (BiFC) fusion (Arabidopsis thaliana) (UniProt Q94JQ6)
T1 sequence: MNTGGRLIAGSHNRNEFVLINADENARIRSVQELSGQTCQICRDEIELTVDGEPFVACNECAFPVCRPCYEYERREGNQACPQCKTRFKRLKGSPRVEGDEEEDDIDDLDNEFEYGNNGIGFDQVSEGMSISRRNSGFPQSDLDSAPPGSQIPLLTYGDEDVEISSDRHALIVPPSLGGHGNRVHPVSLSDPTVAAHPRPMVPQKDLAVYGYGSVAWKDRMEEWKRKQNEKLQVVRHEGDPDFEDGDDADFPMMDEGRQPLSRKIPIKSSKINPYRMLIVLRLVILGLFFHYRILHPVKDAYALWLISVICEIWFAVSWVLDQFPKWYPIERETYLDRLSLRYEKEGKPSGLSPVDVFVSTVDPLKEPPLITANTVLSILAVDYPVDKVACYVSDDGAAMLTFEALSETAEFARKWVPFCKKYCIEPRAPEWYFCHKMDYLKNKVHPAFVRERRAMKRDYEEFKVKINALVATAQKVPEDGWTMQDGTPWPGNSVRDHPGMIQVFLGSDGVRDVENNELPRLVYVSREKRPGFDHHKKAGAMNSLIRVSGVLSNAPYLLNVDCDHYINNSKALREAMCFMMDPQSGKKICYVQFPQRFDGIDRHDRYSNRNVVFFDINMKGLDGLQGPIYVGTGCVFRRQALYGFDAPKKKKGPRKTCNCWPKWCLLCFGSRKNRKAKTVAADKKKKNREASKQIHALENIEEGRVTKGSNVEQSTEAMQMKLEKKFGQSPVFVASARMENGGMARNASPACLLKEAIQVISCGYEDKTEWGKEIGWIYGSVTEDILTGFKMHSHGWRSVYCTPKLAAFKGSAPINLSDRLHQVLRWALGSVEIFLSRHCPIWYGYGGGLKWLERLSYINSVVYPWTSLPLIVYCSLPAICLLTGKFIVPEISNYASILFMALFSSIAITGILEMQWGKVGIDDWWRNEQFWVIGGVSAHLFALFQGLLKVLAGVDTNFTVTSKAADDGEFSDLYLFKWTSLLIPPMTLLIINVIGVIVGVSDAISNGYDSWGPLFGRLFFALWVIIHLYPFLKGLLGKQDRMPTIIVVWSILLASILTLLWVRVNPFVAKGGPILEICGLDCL

T2: CESA8, full length, split-YFP (BiFC) fusion (Arabidopsis thaliana) (UniProt Q8LPK5)
T2 sequence: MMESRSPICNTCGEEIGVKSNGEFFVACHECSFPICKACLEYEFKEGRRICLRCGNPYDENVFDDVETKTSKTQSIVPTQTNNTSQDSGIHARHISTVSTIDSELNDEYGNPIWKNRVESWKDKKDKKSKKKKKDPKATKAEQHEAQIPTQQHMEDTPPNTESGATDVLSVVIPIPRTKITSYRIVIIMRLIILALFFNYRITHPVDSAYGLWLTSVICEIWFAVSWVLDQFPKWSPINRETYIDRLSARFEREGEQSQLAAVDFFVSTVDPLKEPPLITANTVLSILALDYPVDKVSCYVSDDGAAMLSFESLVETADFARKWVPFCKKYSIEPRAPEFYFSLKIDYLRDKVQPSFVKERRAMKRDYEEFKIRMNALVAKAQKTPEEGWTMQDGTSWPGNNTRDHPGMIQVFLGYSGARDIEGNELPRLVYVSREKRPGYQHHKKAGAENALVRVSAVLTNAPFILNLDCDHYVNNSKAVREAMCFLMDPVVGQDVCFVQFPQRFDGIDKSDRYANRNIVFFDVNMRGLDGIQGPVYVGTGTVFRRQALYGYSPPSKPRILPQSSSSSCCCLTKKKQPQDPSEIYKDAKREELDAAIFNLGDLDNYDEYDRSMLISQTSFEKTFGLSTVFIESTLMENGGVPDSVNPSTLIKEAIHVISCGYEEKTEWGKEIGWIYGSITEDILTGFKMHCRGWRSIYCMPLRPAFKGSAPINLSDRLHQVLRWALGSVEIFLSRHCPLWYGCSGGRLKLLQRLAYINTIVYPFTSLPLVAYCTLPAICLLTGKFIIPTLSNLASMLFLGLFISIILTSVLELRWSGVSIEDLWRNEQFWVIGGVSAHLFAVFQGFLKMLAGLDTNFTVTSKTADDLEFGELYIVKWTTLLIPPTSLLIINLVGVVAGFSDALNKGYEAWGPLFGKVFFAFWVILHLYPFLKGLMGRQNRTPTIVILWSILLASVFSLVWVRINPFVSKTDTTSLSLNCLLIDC

T3: KORRIGAN1 (KOR1), full length, split-YFP (BiFC) fusion (Arabidopsis thaliana) (UniProt Q38890)
T3 sequence: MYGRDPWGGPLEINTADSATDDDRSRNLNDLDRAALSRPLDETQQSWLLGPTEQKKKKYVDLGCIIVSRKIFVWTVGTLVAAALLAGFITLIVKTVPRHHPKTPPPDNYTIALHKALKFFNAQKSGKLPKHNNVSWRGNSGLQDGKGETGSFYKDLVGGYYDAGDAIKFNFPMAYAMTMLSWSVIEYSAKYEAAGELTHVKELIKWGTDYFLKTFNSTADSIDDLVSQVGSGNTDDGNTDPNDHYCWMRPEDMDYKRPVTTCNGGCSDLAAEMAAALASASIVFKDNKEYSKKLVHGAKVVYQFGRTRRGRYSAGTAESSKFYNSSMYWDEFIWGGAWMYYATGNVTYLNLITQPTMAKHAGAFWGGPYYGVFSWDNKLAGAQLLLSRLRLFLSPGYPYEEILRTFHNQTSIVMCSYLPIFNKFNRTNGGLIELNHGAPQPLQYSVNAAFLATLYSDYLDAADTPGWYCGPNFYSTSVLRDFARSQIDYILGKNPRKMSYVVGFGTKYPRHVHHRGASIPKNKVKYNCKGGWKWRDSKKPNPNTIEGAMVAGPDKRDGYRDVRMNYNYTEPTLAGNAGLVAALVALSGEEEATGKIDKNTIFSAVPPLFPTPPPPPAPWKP

B1: KOR1C (AA 70 to 621), split-YFP (BiFC) fusion (domain or fragment, UniProt Q38890 70-621)
chain: KIFVWTVGTLVAAALLAGFITLIVKTVPRHHPKTPPPDNYTIALHKALKFFNAQKSGKLPKHNNVSWRGNSGLQDGKGETGSFYKDLVGGYYDAGDAIKFNFPMAYAMTMLSWSVIEYSAKYEAAGELTHVKELIKWGTDYFLKTFNSTADSIDDLVSQVGSGNTDDGNTDPNDHYCWMRPEDMDYKRPVTTCNGGCSDLAAEMAAALASASIVFKDNKEYSKKLVHGAKVVYQFGRTRRGRYSAGTAESSKFYNSSMYWDEFIWGGAWMYYATGNVTYLNLITQPTMAKHAGAFWGGPYYGVFSWDNKLAGAQLLLSRLRLFLSPGYPYEEILRTFHNQTSIVMCSYLPIFNKFNRTNGGLIELNHGAPQPLQYSVNAAFLATLYSDYLDAADTPGWYCGPNFYSTSVLRDFARSQIDYILGKNPRKMSYVVGFGTKYPRHVHHRGASIPKNKVKYNCKGGWKWRDSKKPNPNTIEGAMVAGPDKRDGYRDVRMNYNYTEPTLAGNAGLVAALVALSGEEEATGKIDKNTIFSAVPPLFPTPPPPPAPWKP
B2: KOR1N (AA 1 to 94), split-YFP (BiFC) fusion (domain or fragment, UniProt Q38890 1-94)
chain: MYGRDPWGGPLEINTADSATDDDRSRNLNDLDRAALSRPLDETQQSWLLGPTEQKKKKYVDLGCIIVSRKIFVWTVGTLVAAALLAGFITLIVK
B3: KORRIGAN1 (KOR1), full length, split-YFP (BiFC) fusion (protein, UniProt Q38890 1-621)
chain: T3 sequence

The target in one test is T1, CESA6, full length, split-YFP (BiFC) fusion (Arabidopsis thaliana). In words: split reporter; BiFC: Y/N and Y/C fragments of YFP each linked to the N-terminus of the proteins, transiently expressed in leaves of 3-week-old N. benthamiana; YFP fluorescence by confocal microscopy 3 days after infiltration.
With B1, the binding entry was “binds”.

Turning to B2, the binding entry is “binds”.

As to KIFVWTVGTLVAAALLAGFITLIVK (domain or fragment, UniProt Q38890 70-94) [KOR1TMD (AA 70 to 94), split-YFP (BiFC) fusion], the binding result is reported as “binds weakly”.

For the next test, the target named is T2, CESA8, full length, split-YFP (BiFC) fusion (Arabidopsis thaliana). The description is as above.
Turning to B1, the binding result is recorded as “binds”.

As for B2, the binding result is recorded as “binds”.

Turning to KIFVWTVGTLVAAALLAGFITLIVK (domain or fragment, UniProt Q38890 70-94) [KOR1TMD (AA 70 to 94), split-YFP (BiFC) fusion], the binding result was “binds”.

For B3, the binding entry was “binds”.

Another test addresses T3, KORRIGAN1 (KOR1), full length, split-YFP (BiFC) fusion (Arabidopsis thaliana). The test is described as above.
With B1, the binding result was “binds”.

For B2, the binding entry is given as “binds”.

With B3, the binding result is recorded as “binds”.
